The values that follow come from patent publication US20040092469A1.

Amino acid sequences for entries named in this document (tags omitted). A change or cut given only in a name is not applied to a line headed by its entry. Chains listed by the source or under a name are the forms on record and can include a tag or linker. Residues count along the entry.
GST-WW fusion protein (all four WW-domains of human NEDD4 fused to glutathione S-transferase) (P46934, residues 610-925): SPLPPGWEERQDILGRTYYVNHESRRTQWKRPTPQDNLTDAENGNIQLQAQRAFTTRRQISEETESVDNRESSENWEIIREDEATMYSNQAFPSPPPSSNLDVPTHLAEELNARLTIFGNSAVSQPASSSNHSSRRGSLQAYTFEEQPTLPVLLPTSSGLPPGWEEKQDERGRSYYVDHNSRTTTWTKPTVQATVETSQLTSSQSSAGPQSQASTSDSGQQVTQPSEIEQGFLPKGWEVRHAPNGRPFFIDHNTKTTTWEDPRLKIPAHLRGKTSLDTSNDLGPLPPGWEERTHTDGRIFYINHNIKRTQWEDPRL

The target of assay [1] is NEDD4-GFP fusion protein (human) (UniProt P46934). In words: co-immunoprecipitation from 293 cells, anti-GFP IP and anti-V5 blot (FIG. 7, lane 1).
Assay [2] concerns the target GST-WW fusion protein (all four WW-domains of human NEDD4 fused to glutathione S-transferase) (human) (UniProt P46934). In words: GST pull-down of in vitro translated [35S]Met-labeled protein (FIG. 6, lane 1).

No constants are given. Whether binding was seen depends on the method and setting. Binding seen in cells or lysates may run through a third protein. Some results given as binding are weak or reduced against the parent protein; the word gives no strength. Sequences can lack the tags named with a protein.

B1: PMEPA1-V5 fusion protein (protein, not shown: small tags and cut ends)
chain: MAELEFVQIIIIVVVMMVMVVVITCLLSHYKLSARSFISRHSQGRRREDALSSEGCLWPSESTVSGNGIPEPQVYAPPRPTDRLAVPPFAQRERFHRFQPTYPYLQHEIDLPPTISLSDGEEPPPYQGPCTLQLRDPEQQLELNRESVRAPPNRTIFDSDLMDSARLGGPCPPSSNSGISATCYGSGGRMEGPPPTYSEVIGHYPGSSFQHQQSSGPPSLLEGTRLHHTHIAPLESAAIWSKEKDKQKGHPL
modifications: [35S]methionine-labeled in the GST pull-down assay
Take B1: the binding entry in assay [1] and in assay [2] was “binds” each time.
